Where a chain is given by its changes, count along the chain named. These are yes or no findings as the source states them, for the method shown. Binding seen in cells or lysates may run through a third protein. Some binding calls cover weakened binding; strength is not graded here.
Legend:
Assay in all cases: pull-down; BamE-Myc co-expressed with wild-type or mutant LolCDE (His8 on LolD) from pTRC99a-lolCDE-BamE; complex purified by nickel affinity and SEC; bound BamE detected by western blot
[1] = target: T1, LolCDE complex with H65D in LolE (E. coli K-12) (UniProt P0ADC3+P75957+P75958)
T1 sequence 1: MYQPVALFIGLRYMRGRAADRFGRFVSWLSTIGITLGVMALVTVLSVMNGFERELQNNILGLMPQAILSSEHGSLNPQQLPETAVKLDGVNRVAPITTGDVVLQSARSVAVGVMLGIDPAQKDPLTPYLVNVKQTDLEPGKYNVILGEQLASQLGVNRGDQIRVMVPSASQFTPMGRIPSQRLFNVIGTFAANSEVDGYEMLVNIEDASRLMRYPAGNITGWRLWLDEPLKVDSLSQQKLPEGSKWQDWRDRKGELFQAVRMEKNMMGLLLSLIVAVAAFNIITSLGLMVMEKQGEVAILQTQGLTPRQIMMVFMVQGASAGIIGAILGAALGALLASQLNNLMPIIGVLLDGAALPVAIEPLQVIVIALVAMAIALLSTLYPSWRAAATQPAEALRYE
T1 sequence 2: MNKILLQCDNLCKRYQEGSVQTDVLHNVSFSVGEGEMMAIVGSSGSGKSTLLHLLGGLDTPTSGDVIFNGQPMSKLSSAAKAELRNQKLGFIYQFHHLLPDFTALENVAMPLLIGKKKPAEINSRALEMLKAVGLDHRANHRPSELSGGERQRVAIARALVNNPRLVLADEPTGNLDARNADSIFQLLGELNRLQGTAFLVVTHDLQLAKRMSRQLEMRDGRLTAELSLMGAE
T1 sequence 3: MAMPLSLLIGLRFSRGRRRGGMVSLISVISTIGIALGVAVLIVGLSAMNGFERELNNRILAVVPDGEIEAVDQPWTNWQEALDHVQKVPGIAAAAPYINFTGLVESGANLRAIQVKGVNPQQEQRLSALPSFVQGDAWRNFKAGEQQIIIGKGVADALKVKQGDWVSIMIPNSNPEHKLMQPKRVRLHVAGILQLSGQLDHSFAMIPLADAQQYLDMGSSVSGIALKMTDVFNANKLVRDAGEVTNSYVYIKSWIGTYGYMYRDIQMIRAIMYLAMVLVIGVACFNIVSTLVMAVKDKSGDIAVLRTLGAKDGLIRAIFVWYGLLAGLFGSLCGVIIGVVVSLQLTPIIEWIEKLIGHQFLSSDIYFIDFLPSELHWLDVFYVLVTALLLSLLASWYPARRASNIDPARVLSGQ

By UniProt entry, the sequences of proteins in these tests, tags left out. Residues count along the entry.
UniProt P0A937, residues 20-113: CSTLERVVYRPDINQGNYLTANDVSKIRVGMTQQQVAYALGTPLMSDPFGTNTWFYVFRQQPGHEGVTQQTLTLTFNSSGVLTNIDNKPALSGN

[2] = target: T2, LolCDE complex with L60D in LolE (E. coli K-12) (UniProt P0ADC3+P75957+P75958)
T2 sequence 1: T1 sequence 1
T2 sequence 2: T1 sequence 2
T2 sequence 3: T1 sequence 3 with L60D, D65H

[3] = target: T3, LolCDE complex (wild type), E. coli K-12 (E. coli K-12) (UniProt P0ADC3+P75957+P75958)
T3 sequence 1: T1 sequence 1
T3 sequence 2: T1 sequence 2
T3 sequence 3: T1 sequence 3 with D65H

[4] = target: T4, LolCDE complex with LolE^Y258D (E. coli K-12) (UniProt P0ADC3+P75957+P75958)
T4 sequence 1: T1 sequence 1
T4 sequence 2: T1 sequence 2
T4 sequence 3: T1 sequence 3 with D65H, Y258D

[5] = target: T5, LolCDE complex with LolE^I251D (E. coli K-12) (UniProt P0ADC3+P75957+P75958)
T5 sequence 1: T1 sequence 1
T5 sequence 2: T1 sequence 2
T5 sequence 3: T1 sequence 3 with D65H, I251D

[6] = target: T6, LolCDE complex with V63D in LolE (E. coli K-12) (UniProt P0ADC3+P75957+P75958)
T6 sequence 1: T1 sequence 1
T6 sequence 2: T1 sequence 2
T6 sequence 3: T1 sequence 3 with V63D, D65H

Measured: binding

BamE, outer membrane lipoprotein, with C-terminal Myc tag (from UniProt P0A937 20-113)
binds: all assays above
